Reference: PMC3401193
Results are given in words; binding and its absence hold for the method and conditions named. Binding seen in cells or lysates may run through a third protein. Some entries that bind do so weakly or less than the wild type.

Protein sequences, listed by entry. Tags and fused reporters are not part of them.
UniProt P49841: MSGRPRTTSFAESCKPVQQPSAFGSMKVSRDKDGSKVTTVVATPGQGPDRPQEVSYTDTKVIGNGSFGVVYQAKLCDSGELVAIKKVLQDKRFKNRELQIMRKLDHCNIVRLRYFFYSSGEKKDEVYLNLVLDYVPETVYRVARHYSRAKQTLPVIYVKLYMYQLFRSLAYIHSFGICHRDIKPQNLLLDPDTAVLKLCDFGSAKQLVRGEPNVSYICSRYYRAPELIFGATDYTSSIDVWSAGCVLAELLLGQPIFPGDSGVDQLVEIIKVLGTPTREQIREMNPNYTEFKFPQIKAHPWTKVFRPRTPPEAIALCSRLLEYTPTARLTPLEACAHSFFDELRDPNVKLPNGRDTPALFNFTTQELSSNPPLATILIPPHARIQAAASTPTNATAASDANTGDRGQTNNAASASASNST

Key:
[1] = molecular target: Glycogen Synthase Kinase 3 beta (human (endogenous in HepG2)) (UniProt P49841); experiment: co-IP; mitochondrial fractions of HepG2 cells treated for 0 or 1 h with 30 ng/ml TNF-α; precipitated with polyclonal antibodies against GSK3β, p53 (FL-393) or TFAM on agarose protein A/G Plus beads, with IgG or no antibody as control; Western blot
[2] = molecular target: T1, mitochondrial transcription factor A (human (endogenous in HepG2)) (UniProt Q00059); experiment: as above
T1 sequence: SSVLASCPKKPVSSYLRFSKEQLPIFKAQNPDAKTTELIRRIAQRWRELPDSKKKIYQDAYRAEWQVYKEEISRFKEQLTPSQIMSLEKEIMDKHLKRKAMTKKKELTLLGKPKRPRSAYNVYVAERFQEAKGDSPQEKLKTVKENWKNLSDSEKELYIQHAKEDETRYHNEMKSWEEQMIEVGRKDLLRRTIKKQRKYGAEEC

Row | Molecule | binding [1] | binding [2]
1 | tumor suppressor p53 (from UniProt P04637 1-393) | binds | binds
2 | mitochondrial transcription factor A (protein, UniProt Q00059 43-246) SSVLASCPKKPVSSYLRFSKEQLPIFKAQNPDAKTTELIRRIAQRWRELPDSKKKIYQDAYRAEWQVYKEEISRFKEQLTPSQIMSLEKEIMDKHLKRKAMTKKKELTLLGKPKRPRSAYNVYVAERFQEAKGDSPQEKLKTVKENWKNLSDSEKELYIQHAKEDETRYHNEMKSWEEQMIEVGRKDLLRRTIKKQRKYGAEEC | no binding | –
